# Assay results taken from the supplement of paper PMC8728848.
# This is one part of the list.
# B1: Endo180d1-D4 (Homo sapiens), Q9UBG0 (protein)
# chain: MGPGRPAPAPWPRHLLRCVLLLGCLHLGRPGAPGDAALPEPNVFLIFSHGLQGCLEAQGGQVRVTPACNTSLPAQRWKWVSRNRLFNLGTMQCLGTGWPGTNTTASLGMYECDREALNLRWHCRTLGDQLSLLLGARTSNISKPGTLERGDQTRSGQWRIYGSEEDLCALPYHEVYTIQGNSHGKPCTIPFKYDNQWFHGCTSTGREDGHLWCATTQDYGKDERWGFCPIKSNDCETFWDKDQLTDSCYQFNFQSTLSWREAWASCEQQGADLLSITEIHEQTYINGLLTGYSSTLWIGLNDLDTSGGWQWSDNSPLKYLNWESDQPDNPSEENCGVIRTESSGGWQNRDCSIALPYVCKKKPNATAEPTPPDRWANVKVECEPSWQPFQGHCYRLQAEKRSWQESKKACLRGGGDLVSIHSMAELEFITKQIKQEVEELWIGLNDLKLQMNFEWSDGSLVSFTHWHPFEPNNFRDSLEDCVTIWGPEGRWNDSPCNQSLPSICKKAGQLSQGAAEEDHGCRKGWTWHSPSCYWLGEDQVTYSEARRLCTDHGSQLVTITNRFEQAFVSSLIYNWEGEYFWTALQDLNSTGSFFWLSGDEVMYTHWNRDQPGYSRGGCVALATGSAMGLWEVKNCTSFRARYICRQSLGTPVTPELPGPDPTPSLTGSCPQGWASDTKLRYCYKVFSSERLQDKKSWVQAQGACQELGAQLLSLASYEEEHFVANMLNKIFGESEPEIHEQHWFWIGLNRRDPRGGQSWRWSDGVGFSYHNFDRSRHDDDDIRGCAVLDLASLQWVAMQCDTQLDWICKIPRGTDVREPDDSPQGRREWLRFQEAEYKFFEHHSTWAQAQRICTWFQAELTSVHSQAELDFLSHNLQKFSRAQEQHWWIGLHTSESDGRFRWTDGSIINFISWAPGKPRPVGKDKKCVYMTASREDWGDQRCLTALPYICKRSNVTKETQPPDLPTTALGGCPSDWIQFLNKCFQVQGQEPQSRVKWSEAQFSCEQQEAQLVTITNPLEQAFITASLPNVTFDLWIGLHASQRDFQWVEQEPLMYANWAPGEPSGPSPAPSGNKPTSCAVVLHSPSAHFTGRWDDRSCTEETHGFICQKGTDPSLSPSPAALPPAPGTELSYLNGTFRLLQKPLRWHDALLLCESHNASLAYVPDPYTQAFLTQAARGLRTPLWIGLAGEEGSRRYSWVSEEPLNYVGWQDGEPQQPGGCTYVDVDGAWRTTSCDTKLQGAVCGVSSGPPPPRRISYHGSCPQGLADSAWIPFREHCYSFHMELLLGHKEARQRCQRAGGAVLSILDEMENVFVWEHLQSYEGQSRGAWLGMNFNPKGGTLVWQDNTAVNYSNWGPPGLGPSMLSHNSCYWIQSNSGLWRPGACTNITMGVVCKLPRAEQSSFSPSALPENPAALVVVLMAVLLLLALLTAALILYRRRQSIERGAFEGARYSRSSSSPTEATEKNILVSDMEMNEQQE
# Assays:
# Assay in all cases: glycan array binding signal (z-score within array); higher = stronger binding
# Conditions in all cases: glycan notation: IUPAC condensed, linker removed
# GlcNAc(b1-3)Gal = target: GlcNAc(b1-3)Gal
# Summary of the method: (§1)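 The Consortium for Functional Glycomics database supplied 3228 glycan arrays, of which those lacking an available protein sequence were dropped. The binding signal, a within-array Z-score, was averaged across arrays of the same protein sequence and across linkers. Negative scores can be read as non-binding.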
# [1] = target: GlcNAc(b1-3)Gal(b1-3)GalNAc
# Summary of the method: as §1
# GlcNAc(b1-3)Gal(b1-4)Glc = target: GlcNAc(b1-3)Gal(b1-4)Glc
# Summary of the method: as §1
# [2] = target: GlcNAc(b1-3)Gal(b1-4)GlcNAc
# Summary of the method: as §1
# [3] = target: GlcNAc(b1-3)Gal(b1-4)GlcNAc(b1-2)Man(a1-3)[GlcNAc(b1-3)Gal(b1-4)GlcNAc(b1-2)Man(a1-6)]Man(b1-4)GlcNAc(b1-4)GlcNAc
# Summary of the method: as §1
# [4] = target: GlcNAc(b1-3)Gal(b1-4)GlcNAc(b1-2)Man(a1-3)[GlcNAc(b1-3)Gal(b1-4)GlcNAc(b1-2)Man(a1-6)]Man(b1-4)GlcNAc(b1-4)[Fuc(a1-6)]GlcNAc
# Summary of the method: as §1
# [5] = target: GlcNAc(b1-3)Gal(b1-4)GlcNAc(b1-2)[GlcNAc(b1-3)Gal(b1-4)GlcNAc(b1-6)]Man(a1-6)[GlcNAc(b1-3)Gal(b1-4)GlcNAc(b1-2)Man(a1-3)]Man(b1-4)GlcNAc(b1-4)GlcNAc
# Summary of the method: as §1
# [6] = target: GlcNAc(b1-3)Gal(b1-4)GlcNAc(b1-3)Gal(b1-4)GlcNAc
# Summary of the method: as §1
# [7] = target: GlcNAc(b1-3)Gal(b1-4)GlcNAc(b1-3)Gal(b1-4)GlcNAc(b1-2)Man(a1-3)[GlcNAc(b1-3)Gal(b1-4)GlcNAc(b1-3)Gal(b1-4)GlcNAc(b1-2)Man(a1-6)]Man(b1-4)GlcNAc(b1-4)GlcNAc
# Summary of the method: as §1
# [8] = target: GlcNAc(b1-3)Gal(b1-4)GlcNAc(b1-3)Gal(b1-4)GlcNAc(b1-2)Man(a1-3)[GlcNAc(b1-3)Gal(b1-4)GlcNAc(b1-3)Gal(b1-4)GlcNAc(b1-2)Man(a1-6)]Man(b1-4)GlcNAc(b1-4)[Fuc(a1-6)]GlcNAc
# Summary of the method: as §1
# [9] = target: GlcNAc(b1-3)Gal(b1-4)GlcNAc(b1-3)Gal(b1-4)GlcNAc(b1-2)[GlcNAc(b1-3)Gal(b1-4)GlcNAc(b1-3)Gal(b1-4)GlcNAc(b1-6)]Man(a1-6)[GlcNAc(b1-3)Gal(b1-4)GlcNAc(b1-3)Gal(b1-4)GlcNAc(b1-2)Man(a1-3)]Man(b1-4)GlcNAc(b1-4)[Fuc(a1-6)]GlcNAc
# Summary of the method: as §1
# [10] = target: GlcNAc(b1-3)Gal(b1-4)GlcNAc(b1-3)Gal(b1-4)GlcNAc(b1-3)Gal(b1-4)GlcNAc(b1-2)Man(a1-3)[GlcNAc(b1-3)Gal(b1-4)GlcNAc(b1-3)Gal(b1-4)GlcNAc(b1-3)Gal(b1-4)GlcNAc(b1-2)Man(a1-6)]Man(b1-4)GlcNAc(b1-4)GlcNAc
# Summary of the method: as §1
# [11] = target: GlcNAc(b1-3)Gal(b1-4)GlcNAc(b1-3)Gal(b1-4)GlcNAc(b1-3)Gal(b1-4)GlcNAc(b1-2)Man(a1-3)[GlcNAc(b1-3)Gal(b1-4)GlcNAc(b1-3)Gal(b1-4)GlcNAc(b1-3)Gal(b1-4)GlcNAc(b1-2)Man(a1-6)]Man(b1-4)GlcNAc(b1-4)[Fuc(a1-6)]GlcNAc
# Summary of the method: as §1
# [12] = target: GlcNAc(b1-3)Gal(b1-4)GlcNAc(b1-3)Gal(b1-4)GlcNAc(b1-3)Gal(b1-4)GlcNAc(b1-2)[GlcNAc(b1-3)Gal(b1-4)GlcNAc(b1-3)Gal(b1-4)GlcNAc(b1-3)Gal(b1-4)GlcNAc(b1-6)]Man(a1-6)[GlcNAc(b1-3)Gal(b1-4)GlcNAc(b1-3)Gal(b1-4)GlcNAc(b1-3)Gal(b1-4)GlcNAc(b1-2)Man(a1-3)]Man(b1-4)GlcNAc(b1-4)[Fuc(a1-6)]GlcNAc
# Summary of the method: as §1
# [13] = target: GlcNAc(b1-3)Gal(b1-4)GlcNAc(b1-3)Gal(b1-4)GlcNAc(b1-3)Gal(b1-4)GlcNAc(b1-3)Gal(b1-4)GlcNAc(b1-2)Man(a1-3)[GlcNAc(b1-3)Gal(b1-4)GlcNAc(b1-3)Gal(b1-4)GlcNAc(b1-3)Gal(b1-4)GlcNAc(b1-3)Gal(b1-4)GlcNAc(b1-2)Man(a1-6)]Man(b1-4)GlcNAc(b1-4)GlcNAc
# Summary of the method: as §1
# [14] = target: GlcNAc(b1-3)Gal(b1-4)GlcNAc(b1-3)Gal(b1-4)GlcNAc(b1-3)Gal(b1-4)GlcNAc(b1-3)Gal(b1-4)GlcNAc(b1-2)Man(a1-3)[GlcNAc(b1-3)Gal(b1-4)GlcNAc(b1-3)Gal(b1-4)GlcNAc(b1-3)Gal(b1-4)GlcNAc(b1-3)Gal(b1-4)GlcNAc(b1-2)Man(a1-6)]Man(b1-4)GlcNAc(b1-4)[Fuc(a1-6)]GlcNAc
# Summary of the method: as §1
# [15] = target: GlcNAc(b1-3)Gal(b1-4)GlcNAc(b1-3)Gal(b1-4)GlcNAc(b1-3)Gal(b1-4)GlcNAc(b1-3)Gal(b1-4)GlcNAc(b1-2)[GlcNAc(b1-3)Gal(b1-4)GlcNAc(b1-3)Gal(b1-4)GlcNAc(b1-3)Gal(b1-4)GlcNAc(b1-3)Gal(b1-4)GlcNAc(b1-6)]Man(a1-6)[GlcNAc(b1-3)Gal(b1-4)GlcNAc(b1-3)Gal(b1-4)GlcNAc(b1-3)Gal(b1-4)GlcNAc(b1-3)Gal(b1-4)GlcNAc(b1-2)Man(a1-3)]Man(b1-4)GlcNAc(b1-4)[Fuc(a1-6)]GlcNAc
# Summary of the method: as §1
# [16] = target: GlcNAc(b1-3)Gal(b1-4)GlcNAc(b1-3)Gal(b1-4)GlcNAc(b1-3)GalNAc
# Summary of the method: as §1
# [17] = target: GlcNAc(b1-3)Gal(b1-4)GlcNAc(b1-3)GalNAc
# Summary of the method: as §1
# [18] = target: GlcNAc(b1-3)Gal(b1-4)GlcNAc(b1-3)[GlcNAc(b1-3)Gal(b1-4)GlcNAc(b1-3)]GalNAc
# Summary of the method: as §1
# [19] = target: GlcNAc(b1-3)Gal(b1-4)GlcNAc(b1-6)[Gal(b1-3)]GalNAc
# Summary of the method: as §1
# [20] = target: GlcNAc(b1-3)Gal(b1-4)GlcNAc(b1-6)[GlcNAc(b1-3)Gal(b1-3)]GalNAc
# Summary of the method: as §1
# [21] = target: GlcNAc(b1-3)Gal(b1-4)GlcNAc(b1-6)[GlcNAc(b1-3)]Gal(b1-4)GlcNAc
# Summary of the method: as §1
binder,measurement,setting,value
B1,glycan array binding signal (z-score),GlcNAc(b1-3)Gal,-0.774
same,glycan array binding signal (z-score),[1],0.761
same,glycan array binding signal (z-score),GlcNAc(b1-3)Gal(b1-4)Glc,-0.032
same,glycan array binding signal (z-score),[2],-0.084
same,glycan array binding signal (z-score),[3],-0.555
same,glycan array binding signal (z-score),[4],-0.315
same,glycan array binding signal (z-score),[5],-0.163
same,glycan array binding signal (z-score),[6],-0.114
same,glycan array binding signal (z-score),[7],-0.428
same,glycan array binding signal (z-score),[8],0.617
same,glycan array binding signal (z-score),[9],4.5
same,glycan array binding signal (z-score),[10],0.637
same,glycan array binding signal (z-score),[11],0.135
same,glycan array binding signal (z-score),[12],1.02
same,glycan array binding signal (z-score),[13],-0.28
same,glycan array binding signal (z-score),[14],0.828
same,glycan array binding signal (z-score),[15],-0.156
same,glycan array binding signal (z-score),[16],1.61
same,glycan array binding signal (z-score),[17],1.1
same,glycan array binding signal (z-score),[18],-0.76
same,glycan array binding signal (z-score),[19],-0.285
same,glycan array binding signal (z-score),[20],-0.487
same,glycan array binding signal (z-score),[21],0.383

# Reprinted at random: two records from the list
binder,measurement,setting,value
B1,glycan array binding signal (z-score),[3],-0.555
same,glycan array binding signal (z-score),GlcNAc(b1-3)Gal,-0.774
